Changes are numbered by the printed parent chain. These are yes or no findings as the source states them, for the method shown. Binding can be weak; no strength is given.
Key:
Experiment in all cases: two-hybrid; Sh2 and Sh2 Ser31A/D/E in pGBK-T7 as bait, Bt2 in pGAD-T7 as prey; yeast AH109; SD/-leu-trp and SD/-trp-leu-his-ade/X-alpha-gal plates, gradient dilutions
[1] = target: T1, Sh2-S31E, yeast two-hybrid bait PGBK-T7-Sh2-S31E (maize) (UniProt P55241)
T1 sequence: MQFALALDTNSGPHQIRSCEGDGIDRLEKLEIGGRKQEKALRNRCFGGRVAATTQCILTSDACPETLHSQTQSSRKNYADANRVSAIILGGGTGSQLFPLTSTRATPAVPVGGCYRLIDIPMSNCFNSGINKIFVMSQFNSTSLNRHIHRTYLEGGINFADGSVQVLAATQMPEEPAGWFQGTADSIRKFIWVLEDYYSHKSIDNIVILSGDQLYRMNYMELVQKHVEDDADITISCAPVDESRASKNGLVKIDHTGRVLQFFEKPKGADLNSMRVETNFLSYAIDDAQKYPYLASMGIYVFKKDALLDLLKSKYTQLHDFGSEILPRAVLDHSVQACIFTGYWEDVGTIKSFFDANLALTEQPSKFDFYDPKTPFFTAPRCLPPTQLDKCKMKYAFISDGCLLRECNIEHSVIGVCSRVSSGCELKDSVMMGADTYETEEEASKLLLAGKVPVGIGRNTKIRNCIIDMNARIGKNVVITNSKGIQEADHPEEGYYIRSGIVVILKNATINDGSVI

[2] = target: T2, Sh2-S31D, yeast two-hybrid bait PGBK-T7-Sh2-S31D (maize) (UniProt P55241)
T2 sequence: T1 sequence with E31D

[3] = target: T3, AGPase large subunit Sh2 (shrunken2), yeast two-hybrid bait PGBK-T7-Sh2 (maize) (UniProt P55241)
T3 sequence: T1 sequence with E31S

[4] = target: T4, Sh2-S31A, yeast two-hybrid bait PGBK-T7-Sh2-S31A (maize) (UniProt P55241)
T4 sequence: T1 sequence with E31A

binding [1]: binds | binding [2]: binds | binding [3]: binds | binding [4]: binds
Substance: AGPase small subunit Bt2, yeast two-hybrid prey PGAD-T7-Bt2 (maize)

— publication PMC10607544
